Reference: PubChem BioAssay AID1159578 (Peter MacCallum Cancer Centre, 2015)

Test: 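Genome-wide hunt for genes controlling movement of lymphatic endothelial cells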 (primary screen)
Cells: human lymphatic endothelial cells
Reagent: siRNA pool against human genes, 40 nM
Time to read-out: 48 h after transfection
Detection: 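Cells stained with dye and imaged after a scratch; covered wound area and nuclei counted, duplicates averaged, migration set against mock wells and turned into a robust z-score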
Reading the numbers: migration robust z-score: higher = faster migration into the scratch; nuclei per well: higher = more cells in the well
Active means: 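Pools averaging fewer than 3300 nuclei are never called; remaining pools count as changed when migration robust z lies outside -2 to 2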
Meaning of the calls: active = migration changed; inactive = no migration change, or too few cells
In all, the deposit lists about 18,000 reagents; this is an unselected part. In the full data, about 1,030 (5.7%) got an active call. 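Inactive calls also include pools with fewer than 3300 nuclei, whose migration was not assessed.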 Raw values vary from plate to plate and are shown uncorrected. A number with no mark means an inactive call. Further read-outs or replicates are left out here.

The opening 2 entries, ahead of the listing:
gene knocked down	migration robust z-score	migration class with cell-count check	nuclei per well, duplicate mean
HOXD11	1.2	migration z between -2 and 2; enough cells	4064
PLBD2	-0.4	migration z between -2 and 2; enough cells	5172

The list itself, from the start:
gene knocked down	migration robust z-score	migration class with cell-count check	nuclei per well, duplicate mean
HOXD11	1.2	migration z between -2 and 2; enough cells	4064
PLBD2	-0.4	migration z between -2 and 2; enough cells	5172
ZNF335	1.71	migration z between -2 and 2; enough cells	6665
ELOVL6	-0.18	migration z between -2 and 2; enough cells	5468
BRK1	0.68	migration z between -2 and 2; enough cells	5291
ARPC5	-1.38	migration z between -2 and 2; enough cells	6048
ZNRF4	2.02 (active)	migration z above 2; enough cells	6012
PLD4	1.85	migration z between -2 and 2; enough cells	5115
CALB1	0.3	migration z between -2 and 2; enough cells	5608
HNRNPD	0.13	migration z between -2 and 2; enough cells	5082
PTPRN	-0.9	migration z between -2 and 2; enough cells	4025
PRPSAP2	0.67	migration z between -2 and 2; enough cells	5510
SVEP1	1.82	migration z between -2 and 2; enough cells	6280
TICRR	1.85	migration z between -2 and 2; enough cells	3580
CD163L1	-0.18	migration z between -2 and 2; enough cells	6946
GAMT	0.16	migration z between -2 and 2; enough cells	6285
ARHGEF6	0.96	migration z between -2 and 2; enough cells	5374
HBE1	-3.17 (active)	migration z below -2; enough cells	4404
LCN2	-2.23 (active)	migration z below -2; enough cells	5022
TNS1	-0.26	migration z between -2 and 2; enough cells	7204
RPS6KA6	0.54	migration z between -2 and 2; enough cells	4965
CRISP3	0.16	migration z between -2 and 2; enough cells	6107
IQCK	-0.48	migration z between -2 and 2; enough cells	5496
CXorf38	1.62	migration z between -2 and 2; enough cells	6205
ADAMTS12	1.71	migration z between -2 and 2; enough cells	6008
FANCI	-0.34	migration z between -2 and 2; enough cells	4582
UXT	-0.7	migration z between -2 and 2; enough cells	5274
MCEMP1	-1.5	under 3300 nuclei; migration not judged	2557
HOXB7	-1.25	migration z between -2 and 2; enough cells	4448
H3-3A	-0.2	migration z between -2 and 2; enough cells	5786
CPA4	-0.62	migration z between -2 and 2; enough cells	5410
SPINK4	-0.6	migration z between -2 and 2; enough cells	4631
CXCL9	0.71	migration z between -2 and 2; enough cells	5832
ROPN1B	0.54	migration z between -2 and 2; enough cells	7034
OR6V1	0.69	migration z between -2 and 2; enough cells	5670
SLC26A9	0.8	migration z between -2 and 2; enough cells	5104
TNFRSF19	1.27	migration z between -2 and 2; enough cells	6033
SLC4A8	-2.02 (active)	migration z below -2; enough cells	3792
LNPK	0.23	migration z between -2 and 2; enough cells	5666
TAS2R19	1.17	migration z between -2 and 2; enough cells	5543
MGAT4D	-0.12	migration z between -2 and 2; enough cells	6508
TOP1MT	1.74	migration z between -2 and 2; enough cells	5176
ZNF124	0.28	migration z between -2 and 2; enough cells	5832
DYNC2H1	0.78	migration z between -2 and 2; enough cells	6507
MAB21L1	0.12	migration z between -2 and 2; enough cells	5410
SLC38A6	0.6	migration z between -2 and 2; enough cells	4944
OR2B2	1.66	migration z between -2 and 2; enough cells	7054
SPMAP1	-0.45	migration z between -2 and 2; enough cells	6802
BBOX1	-1.01	migration z between -2 and 2; enough cells	5800
MPP2	-5.55	under 3300 nuclei; migration not judged	2384
CD27	-0.39	migration z between -2 and 2; enough cells	5851
ZNF233	-1.15	migration z between -2 and 2; enough cells	5762
HSD17B6	0.76	migration z between -2 and 2; enough cells	7438
TAF5L	-0.96	migration z between -2 and 2; enough cells	5852
ADAM19	-0.05	migration z between -2 and 2; enough cells	5934
LMCD1	-0.92	migration z between -2 and 2; enough cells	4682
KIR2DL5A	0.3	migration z between -2 and 2; enough cells	5520
PCDH18	-0.21	migration z between -2 and 2; enough cells	5795
INVS	-1.6	migration z between -2 and 2; enough cells	5732
FKBP5	-0.6	migration z between -2 and 2; enough cells	5546
CRYGB	1.67	migration z between -2 and 2; enough cells	5833
RNF207	0.9	migration z between -2 and 2; enough cells	6326
SUGT1	-0.53	migration z between -2 and 2; enough cells	4257
ZNF678	1.73	migration z between -2 and 2; enough cells	4773
CRYBA2	-0.6	migration z between -2 and 2; enough cells	4954
LSM8	0.8	migration z between -2 and 2; enough cells	5800
MOSPD2	1.84	migration z between -2 and 2; enough cells	5725
RPP25L	-0.84	migration z between -2 and 2; enough cells	4878
CEP112	0.94	migration z between -2 and 2; enough cells	7257
TIMM10	-1.87	migration z between -2 and 2; enough cells	4892
IFI35	1.54	migration z between -2 and 2; enough cells	6097
VASH2	0.92	migration z between -2 and 2; enough cells	6020
GLIPR1L1	0.11	migration z between -2 and 2; enough cells	5676
